Reference: ChEMBL document CHEMBL4303122, “Identification of potential treatments for COVID-19 through artificial intelligence-enabled phenomic analysis of human cells infected with SARS-CoV-2” (2020)
In all, about 1,600 compounds were measured (“Hit score”: median about 0.13, highest 2% from about 0.46 on). Some of the results follow.

test system: SARS-CoV-2; test: Antiviral activity against SARS-CoV-2 (USA-WA1/2020 strain) measured by imaging in HRCE cells at MOI 0.4 after 96 hrs (reported as hit score from 0-1 for on-disease vs off-disease activity: scores >0.6 considered hits); format: functional, Homo sapiens

SMILES | Hit score
CCNC(=O)CC[C@H](N)C(=O)O [THEANINE] | 0.04805
CCN[C@H]1C[C@H](C)S(=O)(=O)c2sc(S(N)(=O)=O)cc21 [DORZOLAMIDE] | 0.177
CCCC(=O)N1CCCN(c2nc(N)c3cc(OC)c(OC)cc3n2)CC1 [BUNAZOSIN] | 0.02603
O=C1Cc2cc(CCN3CCN(c4nsc5ccccc45)CC3)c(Cl)cc2N1 [ZIPRASIDONE] | 0.2424
CC(C)/N=c1\cc2n(-c3ccc(Cl)cc3)c3ccccc3nc-2cc1Nc1ccc(Cl)cc1 [CLOFAZIMINE] | 0.5936
CC(=O)N(O)CCCCCNC(=O)CCC(=O)N(O)CCCCCNC(=O)CCC(=O)N(O)CCCCCN [DEFEROXAMINE] | -6.19e-05
N[C@H](CO)C(=O)O [(D)-SERINE] | 0.1472
CCCC(=O)O[C@]1(C(=O)CCl)[C@H](C)C[C@@H]2[C@@H]3CCC4=CC(=O)C=C[C@]4(C)[C@]3(F)C(=O)C[C@@]21C [CLOBETASONE BUTYRATE] | 0.1427
Cn1c(COP(=O)(NCCBr)NCCBr)cnc1[N+](=O)[O-] [EVOFOSFAMIDE] | 0.03069
CC(C)(C(=O)c1cccnc1)c1cccnc1 [METYRAPONE] | 0.1042
CCC(CC)O[C@@H]1C=C(C(=O)O)C[C@H](N)[C@H]1NC(C)=O [OSELTAMIVIR CARBOXYLATE] | 0.1256
CCC(NC(C)C)C(O)c1ccc(O)c(O)c1 (configuration not stated) [ISOETHARINE] | -0.1314
COc1ccc(OC)c(C(O)C(C)N)c1 (configuration not stated) [METHOXAMINE] | 0.2545
CCOC(=O)C(C)(C)Oc1ccc(Cl)cc1 [CLOFIBRATE] | 0.007924
C[C@]12CC[C@H](O)CC1=CC(=O)C1C2CC[C@]2(C)C(=O)CCC12 (some centres not stated) [7-KETO-DEHYDROEPIANDROSTERONE] | 0.08537
CN1CCC(C(=O)c2cccc(NC(=O)c3c(F)cc(F)cc3F)n2)CC1 | -0.04275
C#C[C@]1(O)CC[C@H]2[C@@H]3[C@H](C)CC4=C(CCC(=O)C4)[C@H]3CC[C@@]21C [TIBOLONE] | 0.094
Cc1cccc(N2CC(CO)OC2=O)c1 (configuration not stated) [TOLOXATONE] | -0.02449
CN1CCN(C2=Nc3cc(Cl)ccc3Nc3ccccc32)CC1 [CLOZAPINE] | 0.1925
Cc1ccc(/C=C2/C(=O)C3(C)CCC2C3(C)C)cc1 (configuration not stated) [ENZACAMENE] | 0.1975
CCOc1ccc2nc(SCCN3CCOCC3)[nH]c2c1 [FABOMOTIZOLE] | 0.2029
NC12CC3CC(CC(C3)C1)C2 [AMANTADINE] | 0.207
CS(=O)(=O)n1cc2c(n1)CN([C@H]1CO[C@H](c3cc(F)ccc3F)[C@@H](N)C1)C2 [OMARIGLIPTIN] | 0.162
CCCN(CCc1cccs1)[C@H]1CCc2c(O)cccc2C1 [ROTIGOTINE] | 0.1872

Among those listed so far, these contain an aryl methoxy group:
SMILES | Hit score
CCCC(=O)N1CCCN(c2nc(N)c3cc(OC)c(OC)cc3n2)CC1 [BUNAZOSIN] | 0.02603
COc1ccc(OC)c(C(O)C(C)N)c1 (configuration not stated) [METHOXAMINE] | 0.2545

More results

SMILES | Hit score
Clc1ccc(COC(Cn2ccnc2)c2ccc(Cl)cc2Cl)c(Cl)c1 (configuration not stated) [MICONAZOLE] | 0.003347
OC[C@H]1O[C@@H](c2ccc(F)c(Cc3cc4ccccc4s3)c2)[C@H](O)[C@@H](O)[C@@H]1O [IPRAGLIFLOZIN] | 0.1583
CC1CCc2c(N3CCC(O)CC3)c(F)cc3c(=O)c(C(=O)O)cn1c23 (configuration not stated) [NADIFLOXACIN] | 0.1702
Cc1ccc(-c2ncc(Cl)cc2-c2ccc(S(C)(=O)=O)cc2)cn1 [ETORICOXIB] | 0.06952
NC(N)=O [UREA] | 0.04168
Cn1c([N+](=O)[O-])cnc1COC(N)=O [RONIDAZOLE] | 0.02203
COc1ccc2c(c1)c(CC(=O)OCC(C(=O)O)c1ccccc1)c(C)n2C(=O)c1ccc(Cl)cc1 (configuration not stated) | 0.05914
CCC[C@H](NC(=O)[C@@H]1[C@H]2CCC[C@H]2CN1C(=O)[C@@H](NC(=O)[C@@H](NC(=O)c1cnccn1)C1CCCCC1)C(C)(C)C)C(=O)C(=O)NC1CC1 | 0.1221
CCCCC1OC(=O)c2ccccc21 (stereo not drawn) [RAC-3-N-BUTYLPHTHALIDE] | 0.2447
COc1ccc(-c2cc(C(F)F)nn2-c2ccc(S(N)(=O)=O)cc2)cc1F [DERACOXIB] | 0.1986
CCCCCCCCCCCCCCCC[n+]1ccccc1 | 0.1396
COc1ccc(C(=O)NCc2ccc(OCCN(C)C)cc2)cc1OC [ITOPRIDE] | 0.2388
CC(C)CN(C[C@@H](OP(=O)(O)O)[C@H](Cc1ccccc1)NC(=O)O[C@H]1CCOC1)S(=O)(=O)c1ccc(N)cc1 [FOSAMPRENAVIR] | 0.1142
CO[C@H]1C[C@H](O[C@@H]2/C(C)=C/C[C@@H]3C[C@@H](C[C@]4(CC[C@H](C)[C@@H](C5CCCCC5)O4)O3)OC(=O)[C@@H]3C=C(C)/C(=N/O)[C@H]4OC/C(=C\C=C\[C@@H]2C)[C@]43O)O[C@@H](C)[C@@H]1O [SELAMECTIN] | 0.03596
OC(CCN1CCCCC1)(c1ccccc1)C1CCCCC1 (configuration not stated) [TRIHEXYPHENIDYL] | 0.4673
Nc1nc(NC2CC2)c2ncn([C@H]3C=C[C@@H](CO)C3)c2n1.Nc1nc(NC2CC2)c2ncn([C@H]3C=C[C@@H](CO)C3)c2n1.O=S(=O)(O)O [ABACAVIR SULFATE] | 0.1092
N=C(N)N/N=C/c1c(Cl)cccc1Cl [GUANABENZ] | -0.01672
Cc1ccc2c(Cl)cc(Cl)c(O)c2n1 [CHLORQUINALDOL] | 0.2863
CCCc1nc(C(C)(C)O)c(C(=O)O)n1Cc1ccc(-c2ccccc2-c2nnn[nH]2)cc1 [OLMESARTAN] | 0.1095
Brc1c(NC2=NCCN2)ccc2nccnc12 [BRIMONIDINE] | 0.1067
N#Cc1ccc(Oc2ccc3c(c2)COB3O)cc1 [CRISABOROLE] | 0.00306
CC(N)C12CC3CC(CC(C3)C1)C2 (configuration not stated) [RIMANTADINE] | 0.1024
Nc1cc(-c2ccncc2)c[nH]c1=O [INAMRINONE] | 0.2162
